Laboratory results: PubChem BioAssay AID652243 (Drosophila RNAi Screening Center, 2013)
The screen tested about 24,000 reagents; this is a random part of those that have a named target and a result. Of all reagents, 246 (1%) got an active call. 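Plates not normalised; calls are printed but the firefly/Renilla ratio behind them is not deposited; fold cut for lowering reported inconsistently.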 The raw values are shown without normalisation. Names joined by + are all predicted targets of the reagent. Not stated in the record: the amount of reagent.

Screen: 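Fly regulators of androgen-dependent reporter output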 (primary screen)
System: Drosophila S2R+ cells
Reagent: long dsRNA against Drosophila genes
Time to read-out: 72 h (48 h, then 24 h hormone)
Challenge: synthetic androgen R1881 at 10 nM for 24 h
Measurement: 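Per-well raw luminescence of the androgen-driven firefly reporter and of the Renilla control, two replicates each, without normalisation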
Direction: firefly reporter light: higher = more light from androgen-responsive reporter; Renilla control light: higher = more constitutive control signal (cell number, transfection)
Rule for the call: 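Hit when the log firefly-to-Renilla ratio dropped or increased by a fixed fold versus the mean of GFP or LacZ controls across duplicate plates; lowering cut given as 1.5 and as 3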
Meaning of the calls: active = hit: reporter lowered or raised; inactive = no hit

| Target gene | DRSC id | firefly reporter light, replicate 1 | firefly reporter light, replicate 2 | Renilla control light, replicate 1 | Renilla control light, replicate 2 | outcome |
| --- | --- | --- | --- | --- | --- | --- |
| Chd1 (GeneID 33505) | DRSC00745 | 8.49e5 | 7.95e5 | 1.73e6 | 1.24e6 | inactive |
| CG15450 (GeneID 33064) | DRSC20522 | 2.52e5 | 3.43e5 | 2.37e6 | 2.58e6 | inactive |
| Toll-7 (GeneID 37272) | DRSC07563 | 4.37e5 | 4.30e5 | 1.23e6 | 1.02e6 | inactive |
| Toll-7 (GeneID 37272) | DRSC29640 | 3.81e5 | 5.56e5 | 1.02e6 | 1.02e6 | inactive |
| Itgbn (GeneID 35368) | DRSC03493 | 1.63e5 | 1.58e5 | 9.80e5 | 1.63e6 | inactive |
| Sox21b (GeneID 39569) | DRSC23005 | 8.86e5 | 1.17e6 | 8.21e5 | 9.46e5 | inactive |
| Sox21b (GeneID 39569) | DRSC25803 | 3.88e5 | 4.79e5 | 7.30e5 | 6.35e5 | inactive |
| CstF64 (GeneID 42239) | DRSC16616 | 39789 | 54215 | 9.31e5 | 1.19e6 | active |
| CstF64 (GeneID 42239) | DRSC29486 | 3.79e5 | 4.74e5 | 9.78e5 | 9.78e5 | inactive |
| DIP-kappa (GeneID 318958) | DRSC01336 | 4.98e5 | 8.51e5 | 9.10e5 | 9.27e5 | inactive |
| DIP-kappa (GeneID 318958) | DRSC01337 | 3.96e5 | 4.13e5 | 4.32e5 | 4.65e5 | inactive |
| Snoo (GeneID 5740414) | DRSC03004 | 8.07e5 | 8.19e5 | 1.67e6 | 1.73e6 | inactive |
| Snoo (GeneID 5740414) | DRSC03035 | 2.36e5 | 2.05e5 | 1.70e6 | 1.53e6 | inactive |
| Lst8 (GeneID 31903) | DRSC18262 | 1.16e5 | 1.05e5 | 6.18e5 | 7.74e5 | inactive |
| Arpc5 (GeneID 33444) | DRSC00730 | 1.13e5 | 99114 | 6.88e5 | 6.30e5 | inactive |
| CkIIalpha (GeneID 48448) | DRSC11946 | 50556 | 1.36e5 | 2.20e6 | 2.38e6 | inactive |
| CkIIalpha (GeneID 48448) | DRSC36991 | – | – | – | – | inactive |
| CG13003 (GeneID 32675) | DRSC19522 | 6.65e5 | 6.51e5 | 3.22e6 | 2.39e6 | inactive |
| Jon25Bi (GeneID 33708) | DRSC03434 | 1.10e5 | 1.25e5 | 1.64e6 | 1.12e6 | inactive |
| Jon25Bi (GeneID 33708) | DRSC25181 | 6.86e5 | 6.33e5 | 4.47e5 | 5.26e5 | inactive |
| Nup358 (GeneID 43041) | DRSC14410 | 80414 | 80535 | 9.71e5 | 9.84e5 | inactive |
| Nup358 (GeneID 43041) | DRSC29772 | 5.32e5 | 2.99e5 | 1.52e6 | 1.30e6 | inactive |
| CG13021 (GeneID 31323) | DRSC17893 | 2.88e5 | 3.72e5 | 2.89e6 | 2.74e6 | inactive |
| CG6836 (GeneID 40070) | DRSC10722 | 27204 | 30899 | 6.43e5 | 4.13e5 | inactive |
| CG6836 (GeneID 40070) | DRSC26906 | 3.89e5 | 3.29e5 | 5.00e5 | 4.74e5 | inactive |
| ATPsyndelta (GeneID 31950) | DRSC18248 | 1.56e5 | 2.32e5 | 2.12e6 | 2.92e6 | inactive |
| TRAM (GeneID 31042) | DRSC18178 | 2.34e5 | 3.39e5 | 4.69e6 | 3.75e6 | inactive |
| TRAM (GeneID 31042) | DRSC18651 | 2.08e5 | 2.45e5 | 2.73e6 | 1.74e6 | inactive |
| CG9875 (GeneID 37698) | DRSC04585 | 3.30e5 | 2.97e5 | 2.08e6 | 1.77e6 | inactive |
| Mpv17 (GeneID 43831) | DRSC17198 | 3.43e5 | 3.86e5 | 3.92e6 | 3.54e6 | inactive |
| CG12020 (GeneID 38233) | DRSC08226 | 72170 | 52712 | 9.38e5 | 1.10e6 | inactive |
| CG12020 (GeneID 38233) | DRSC28730 | 3.62e5 | 2.76e5 | 1.29e6 | 1.15e6 | inactive |
| CG33491 (retired record) + CG33496 (retired record) + CG33487 (retired record) + 1 more | DRSC22969 | 6.92e5 | 1.03e6 | 1.84e6 | 2.83e6 | inactive |
| CG8568 (GeneID 32728) | DRSC20113 | 78733 | 1.36e5 | 4.64e5 | 7.26e5 | inactive |
| CG8568 (GeneID 32728) | DRSC26687 | 4.08e5 | 4.07e5 | 6.31e5 | 5.40e5 | inactive |
| erm (GeneID 326152) | DRSC00700 | 7.79e5 | 1.08e6 | 2.45e6 | 2.57e6 | inactive |
| CG7548 (GeneID 38843) | DRSC10874 | 1.42e5 | 1.55e5 | 1.96e6 | 1.69e6 | inactive |
| CG7548 (GeneID 38843) | DRSC29043 | 6.09e5 | 7.20e5 | 1.76e6 | 1.35e6 | inactive |
| Gbeta13F (GeneID 32544) | DRSC20247 | 1.10e5 | 90772 | 5.68e5 | 5.38e5 | inactive |
| Ccdc58 + CG34116 | DRSC10105 | 1.95e5 | 1.58e5 | 2.39e6 | 2.15e6 | inactive |
| GNBP2 (GeneID 40033) | DRSC10404 | 38291 | 42088 | 3.32e5 | 3.10e5 | inactive |
| fan (GeneID 43926) | DRSC10930 | 2.29e5 | 1.54e5 | 2.30e6 | 1.26e6 | inactive |
| CG12814 (GeneID 41246) | DRSC14552 | 1.54e5 | 1.62e5 | 8.83e5 | 7.79e5 | inactive |
| CG12814 (GeneID 41246) | DRSC14553 | 95502 | 92062 | 2.07e6 | 1.35e6 | inactive |
| CtsK1 (GeneID 39547) | DRSC08742 | 2.80e5 | 2.24e5 | 2.96e6 | 2.49e6 | inactive |
| cmb (GeneID 39513) | DRSC09790 | 2.97e5 | 2.90e5 | 3.26e6 | 2.61e6 | inactive |
| cmb (GeneID 39513) | DRSC25444 | 8.86e5 | 1.07e6 | 1.09e6 | 9.35e5 | inactive |
| cmb (GeneID 39513) | DRSC39052 | 3.09e5 | 3.32e5 | 1.30e6 | 1.49e6 | inactive |
| adp (GeneID 37073) | DRSC06916 | 4.40e5 | 4.34e5 | 4.98e5 | 3.88e5 | inactive |
| CG15764 (GeneID 31516) | DRSC18070 | 2.73e5 | 2.69e5 | 3.05e6 | 2.79e6 | inactive |
| CG15764 (GeneID 31516) | DRSC25755 | 8.83e5 | 6.65e5 | 9.16e5 | 7.35e5 | inactive |
| Rack1 (GeneID 34070) | DRSC03405 | 2.10e5 | 2.31e5 | 2.41e6 | 1.88e6 | inactive |
| Rack1 (GeneID 34070) | DRSC23796 | 6.11e5 | 4.29e5 | 7.01e5 | 6.91e5 | inactive |
| CG30158 (GeneID 50149) | DRSC04956 | 1.33e5 | 1.46e5 | 2.42e5 | 3.18e5 | inactive |
| CG30158 (GeneID 50149) | DRSC04974 | 2.14e5 | 2.52e5 | 1.89e6 | 1.83e6 | inactive |
| CG30158 (GeneID 50149) | DRSC04975 | 2.34e5 | 2.92e5 | 1.99e6 | 2.10e6 | inactive |
| CG30158 (GeneID 50149) | DRSC05012 | 3.18e5 | 3.26e5 | 1.70e6 | 1.90e6 | inactive |
| CAH2 (GeneID 39390) | DRSC10746 | 1.89e5 | 1.89e5 | 2.26e6 | 2.34e6 | inactive |

7 successive records from above, quoted:
| Target gene | DRSC id | firefly reporter light, replicate 1 | firefly reporter light, replicate 2 | Renilla control light, replicate 1 | Renilla control light, replicate 2 | outcome |
| --- | --- | --- | --- | --- | --- | --- |
| Rack1 (GeneID 34070) | DRSC03405 | 2.10e5 | 2.31e5 | 2.41e6 | 1.88e6 | inactive |
| Rack1 (GeneID 34070) | DRSC23796 | 6.11e5 | 4.29e5 | 7.01e5 | 6.91e5 | inactive |
| CG30158 (GeneID 50149) | DRSC04956 | 1.33e5 | 1.46e5 | 2.42e5 | 3.18e5 | inactive |
| CG30158 (GeneID 50149) | DRSC04974 | 2.14e5 | 2.52e5 | 1.89e6 | 1.83e6 | inactive |
| CG30158 (GeneID 50149) | DRSC04975 | 2.34e5 | 2.92e5 | 1.99e6 | 2.10e6 | inactive |
| CG30158 (GeneID 50149) | DRSC05012 | 3.18e5 | 3.26e5 | 1.70e6 | 1.90e6 | inactive |
| CAH2 (GeneID 39390) | DRSC10746 | 1.89e5 | 1.89e5 | 2.26e6 | 2.34e6 | inactive |
